Results taken from article PMC4969574 (The EMBO Journal, 2016).
These are yes or no findings as the source states them, for the method shown. Binding seen in cells or lysates may run through a third protein. Here binding means that the protein was enriched with, or labelled near, the bait; the list need not be complete. Tags and fused reporters may be left off the sequences shown.

T1: His6-TssA1 produced in P. aeruginosa (P. aeruginosa), Q9I750
T1 chain: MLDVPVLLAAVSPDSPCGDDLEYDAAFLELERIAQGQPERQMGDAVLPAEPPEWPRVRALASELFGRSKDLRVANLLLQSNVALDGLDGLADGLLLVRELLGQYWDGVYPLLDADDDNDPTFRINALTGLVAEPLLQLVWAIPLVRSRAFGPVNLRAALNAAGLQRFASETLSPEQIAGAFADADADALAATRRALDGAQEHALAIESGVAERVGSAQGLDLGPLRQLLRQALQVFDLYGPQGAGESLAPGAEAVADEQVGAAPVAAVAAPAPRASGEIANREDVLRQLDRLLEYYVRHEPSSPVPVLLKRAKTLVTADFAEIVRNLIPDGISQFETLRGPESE

T2: His6-TssA1 produced in P. aeruginosa (P. aeruginosa) (UniProt Q9I750)
T2 sequence: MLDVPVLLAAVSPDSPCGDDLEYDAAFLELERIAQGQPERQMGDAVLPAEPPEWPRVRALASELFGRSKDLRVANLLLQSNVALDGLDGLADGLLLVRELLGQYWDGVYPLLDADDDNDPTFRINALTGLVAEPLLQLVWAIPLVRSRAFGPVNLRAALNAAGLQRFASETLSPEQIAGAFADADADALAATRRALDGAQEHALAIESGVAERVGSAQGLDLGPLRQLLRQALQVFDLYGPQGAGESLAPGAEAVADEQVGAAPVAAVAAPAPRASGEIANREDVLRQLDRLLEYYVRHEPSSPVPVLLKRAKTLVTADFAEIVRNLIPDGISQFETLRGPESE


Legend:
[1] = biological target: T1, His6-TssA1 produced in P. aeruginosa …; assay: affinity purification with mass spectrometry; His6-TssA1 produced in the P. aeruginosa tssA1 mutant; soluble fraction on Ni-NTA, 25 mM Tris-HCl pH 7.5, 150 mM NaCl, eluted with 300 mM imidazole; LC-MS/MSe; control: strain with empty pBBR vector; details: remark: other sources report otherwise
[2] = biological target: T2, His6-TssA1 produced in P. aeruginosa (P. aeruginosa); assay: as above

Row | Binder | binding [1] | binding [2]
1 | TssB1, Q9I749 1-172 (protein) MGSTTSSQKFIARNRAPRVQIEYDVELYGAEKKVQLPFVMGVMADLAGKPAEPQAAVADRKFLEIDVDNFDARLKAMKPRVAFNVPNVLTGEGNLSLDITFESMDDFSPAAVARKVDSLNKLLEARTQLANLLTYMDGKTGAEEMIMKAIKDPALLQALASAPKPKDDEPQA | binds | 
2 | TssK1 fused to the adenylate cyclase T25 or T18 subunit (natural protein) MSWNNRVVWSEGMFLRPQHFQQHDRYLETLVDGRCRSLLAGGWGFSELKLDDALLTQGKLAIVSARGVLPDGTPFNIPADDPAPAPLNVEESLRDGIVYLGLPLKRVGTRDTVEEGEALGGARYVSQVQEVRDDNAAFESRAPVALGSQAFRLLTERDGLGEYAAVGVARVREKRADQALSLDEDYLPPVLDIAAAPPLASFAKELLGLLHQRGEALAGRVVASSAGGASEIADFLLLQLVNRAEALTGHLSRVRPLHPQELYRELVALAGEFCTFTASQRRPEEYPVYNHDDLAASFAPVMLALRQALATVIDAKAIAIPIVEKAYGVHVAMLSDRSLIDNASFVLVVRADVPGESLRGHFPQQAKVGSVEHIRDLVNLQLPGIGLLPMPVAPRQIPYHAGSTYFELDRGSAHWKQLTHSGGFAFHIAGQFPGLNLAFWAIRG |  | binds
